Data as given in PubChem BioAssay AID1259424 (University of Nebraska Medical Center, 2018)
Shown is a random part of about 14,000 reagents tested. 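Higher correlation or smaller distance means closer resemblance to KSR1 loss; control wells, including KSR1 knockdowns, recur on many plates.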 Not all columns of the deposit are shown. No sequences are given here. The record does not give: the time to read-out.

- Aim: 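Rank knockdowns across the genome by resemblance to the KSR1 depletion profile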 (primary screen)
- System: human HCT116 colon cancer cells
- Knock-down reagent: siRNA pool against human genes, 50 nM
- Read-out: 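Log2 levels of six mRNAs (branched-DNA multiplex), adjusted by two reference genes and the non-targeting median, then scored against the average KSR1 knockdown pattern as Pearson r and euclidean distance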
- Reading the numbers: mean correlation with KSR1 profile: higher = expression change more like KSR1 knockdown

Against EPB41L5, the entry reads mean correlation with KSR1 profile -0.284.
Against CDK2, the values are mean correlation with KSR1 profile 0.128.
Silencing of CYP2S1 came out at: mean correlation with KSR1 profile 0.282.
For KRABD1, the values are mean correlation with KSR1 profile 0.135.
CXCL14 showed mean correlation with KSR1 profile -0.554.
Depletion of SH3BP4 resulted in: mean correlation with KSR1 profile 0.356.
Silencing of IGSF3 gave: mean correlation with KSR1 profile 0.163.
With knock-down of MLEC the results were mean correlation with KSR1 profile -0.637.
Silencing of MAP3K20 came out at: mean correlation with KSR1 profile -0.205.
Depletion of ASF1A resulted in: mean correlation with KSR1 profile 0.103.
Against MKS1, the values are mean correlation with KSR1 profile -0.713.
Silencing of RPL28 came out at: mean correlation with KSR1 profile 0.178.
For MKNK2 the deposit lists mean correlation with KSR1 profile 0.346.
DNAJC15 gave mean correlation with KSR1 profile -0.402.
S1PR4 showed mean correlation with KSR1 profile 0.698.
Silencing of CFH gave: mean correlation with KSR1 profile -0.641.
VPS16 showed mean correlation with KSR1 profile 0.304.
For SYNJ2 the deposit lists mean correlation with KSR1 profile -0.0312.
With knock-down of RCN3, the screen gave mean correlation with KSR1 profile 0.0177.
For USP1, the entry reads mean correlation with KSR1 profile -0.36.
GFRA3 gave mean correlation with KSR1 profile 0.595.
Against RHOF, the entry reads mean correlation with KSR1 profile -0.443.
For S100PBP, the values are mean correlation with KSR1 profile -0.00675.
For TAS1R2, the values are mean correlation with KSR1 profile 0.17.
Against ALKBH2, the entry reads mean correlation with KSR1 profile -0.0279.
Against HSPA13 the deposit lists mean correlation with KSR1 profile -0.00338.
HDAC7 gave mean correlation with KSR1 profile 0.542.
After knock-down of TMEM9B, the screen gave mean correlation with KSR1 profile -0.233.
SLC6A20 scored mean correlation with KSR1 profile -0.0765.
With knock-down of SPTBN2 the results were mean correlation with KSR1 profile -0.377.
With knock-down of SYNE2, the record shows mean correlation with KSR1 profile 0.067.
Against NDUFS3, the values are mean correlation with KSR1 profile -0.574.
SPRING1 scored mean correlation with KSR1 profile 0.893.
Knock-down of HGS came out at: mean correlation with KSR1 profile 0.111.
Depletion of FKBP10 resulted in: mean correlation with KSR1 profile 0.144.
Knock-down of ATP2A3 resulted in: mean correlation with KSR1 profile 0.825.

Part of the list above in another layout:
{"gene knocked down": "MKNK2", "mean correlation with KSR1 profile": 0.346}
{"gene knocked down": "DNAJC15", "mean correlation with KSR1 profile": -0.402}
{"gene knocked down": "S1PR4", "mean correlation with KSR1 profile": 0.698}
{"gene knocked down": "CFH", "mean correlation with KSR1 profile": -0.641}
{"gene knocked down": "VPS16", "mean correlation with KSR1 profile": 0.304}
{"gene knocked down": "SYNJ2", "mean correlation with KSR1 profile": -0.0312}
